Test results taken from patent US20180312608A1.
Results are given in words; binding and its absence hold for the method and conditions named. Some entries that bind do so weakly or less than the wild type.

Chains of the proteins cited; added tags and fusions are not shown. Lines headed by an entry give the natural chain unless they say otherwise; changes in a name come on top. A line that says so, or that is headed by a name, gives the form on record, which may keep a tag or linker.
solubilized PHF (paired helical filament Tau) from human AD brain (P10636, form named): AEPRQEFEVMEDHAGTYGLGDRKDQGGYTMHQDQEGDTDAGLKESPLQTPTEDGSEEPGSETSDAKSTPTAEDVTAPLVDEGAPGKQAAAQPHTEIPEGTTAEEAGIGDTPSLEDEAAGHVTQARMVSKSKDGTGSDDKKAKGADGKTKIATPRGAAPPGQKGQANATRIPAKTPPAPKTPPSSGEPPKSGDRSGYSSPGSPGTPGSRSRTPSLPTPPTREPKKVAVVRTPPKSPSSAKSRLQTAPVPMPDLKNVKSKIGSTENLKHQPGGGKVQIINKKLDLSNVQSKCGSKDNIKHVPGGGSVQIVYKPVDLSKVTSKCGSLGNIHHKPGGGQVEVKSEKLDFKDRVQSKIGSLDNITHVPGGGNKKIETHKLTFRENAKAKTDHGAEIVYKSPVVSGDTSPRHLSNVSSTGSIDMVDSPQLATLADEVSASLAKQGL

Target: Antibody 4E6G7
Test: competition ELISA: antibody pre-incubated with solubilized PHF in solution, then added to wells coated with solubilized PHF; competitor = plate-coated solubilized PHF [Panel F]

Substance: solubilized PHF (paired helical filament Tau) from human AD brain (from UniProt P10636 2-441)
- binding: binds
